According to PubChem BioAssay AID540256 (National Center for Advancing Translational Sciences (NCATS), 2011):
The whole screen tested about 300,000 compounds, of which about 3,700 (1.2%) were called active. The shares of active, inactive and inconclusive entries below differ from those in the screen. The call rests on the fitted dose curve; tested in HEK293 cells. Potencies beside an inconclusive call are fits to weak or partial responses and may not hold up.

Assay: qHTS for Inhibitors of binding or entry into cells for Lassa Virus; further: nearly all actives have a fitted effect of over 50% in size
Conditions: Lassa virus pseudotype entry inhibition, cell reporter; activity change, negative = inhibition: at 37.9 µM (top of the series) unless noted
On the % scale 0 is the no-effect control and ±100 the full control effect; potency means the concentration at half of the fitted maximal effect.

Structure (SMILES)	activity change, negative = inhibition	Potency
O=C(CSc1ccc(-c2ccccc2)nn1)c1cccs1	inactive: 17.7%	
Cc1ccc(-n2c(C)cc3c2CC(C)(C)CC3=O)cc1C		inconclusive: 14.6 µM [inhibitor, partial curve, poor fit]
Clc1ccc(-c2csc(N/N=C/c3ccco3)n2)cc1		inconclusive: 25.1 µM [inhibitor, single point]
Cc1[nH]c2ccccc2c1CCNC(=O)c1ccc2nccnc2c1		inconclusive: 15.8 µM [inhibitor, single point]
COc1ccccc1OCCSc1nc(N)cc(N)n1		inconclusive: 1.16 µM [activator, single point]
CCCC(=O)C1C(=O)CC(CC(C)SCC)CC1=O (centres undefined)		inconclusive: 29.1 µM [activator, single point]
CCCCCCn1c(C(C)NC(=O)c2ccco2)nc2ccccc21 (centres undefined)	inactive: -23.9%	
COC(=O)CNc1nc(C2CC2)nc2c1nnn2Cc1ccccc1Cl	inactive: 6.36%	
CC1(c2ccccc2)NC(=O)N(NC(=O)COC(=O)c2cc(Br)ccc2O)C1=O (centres undefined)		inconclusive: 2 µM [activator, partial curve, poor fit]
CC(C)/C(C=O)=C(/NC1CCCCC1)c1ccccc1		inconclusive: 35.5 µM [inhibitor, single point]
COc1ccc(N(CC(=O)NN=C2CCCC2)S(=O)(=O)c2ccccc2)cc1Cl	inactive: -5.97%	
Cc1ccc(C)c(N2CCN(C(=O)C3CCCN(S(=O)(=O)c4ccc5c(c4)oc(=O)n5C)C3)CC2)c1 (centres undefined)		inconclusive: 35.5 µM [inhibitor, single point]
COc1ccc(S(=O)(=O)Nc2ccc3c(c2)N(C(C)=O)CCC3)cc1F		inconclusive: 15.8 µM [inhibitor, single point]
CCS(=O)(=O)NCc1nnc2n1-c1ccc(Cl)cc1C(c1ccccc1)=NC2		inconclusive: 5.62 µM [activator, full curve]
COc1ccc(C(=O)C/C(=C\C(=O)c2ccc(C)cc2)c2ccccc2)cc1		inconclusive: 20.6 µM [inhibitor, partial curve, poor fit]
CCOC(=O)c1ccc(NC(=O)CN2C(=O)CSCC2=O)cc1	inactive: 2.69%	
CCOC(=O)C1CCCN(CC(=O)Nc2ccc(C(=O)Nc3ccccc3OC)cc2)C1 (centres undefined)	inactive: -0.304%	
O=C1CC(c2cc(Br)ccc2F)c2cc3c(cc2N1)CCC3 (centres undefined)		inconclusive: 8.2 µM [inhibitor, partial curve, poor fit]
Cc1ccccc1N1CC(c2nc3ccccc3n2CCC2CCCCC2)CC1=O (centres undefined)	inactive: -1.99% [at 46.1 µM]	
O=C(COc1ccc(Br)cc1)Nc1ccc2c(c1)C(=O)NC2=O	inactive: -8.81%	
Cc1ccccc1C(=O)n1nc(-c2ccco2)nc1NCc1ccc(Cl)cc1		inconclusive: 12.6 µM [activator, partial curve, poor fit]
O=S(=O)(c1ccc(NC(=S)NCc2ccncc2)cc1)N1CCCCC1	inactive: 8.84% [at 46.1 µM]	
CC(=O)c1ccc(NC(=O)Cn2cc(S(=O)(=O)Cc3cccc(Cl)c3)c3ccccc32)cc1	inactive: 17.6% [at 46.1 µM]	

Structure (SMILES)	activity change, negative = inhibition	Potency
Cc1ccccc1NC(=O)C(C)SCc1ccccc1 (centres undefined)		inconclusive: 22.4 µM [activator, single point]
O=C(Nc1cc2ccccc2oc1=O)c1ccccc1		active: 2.51 µM
O=C(C(=O)N1CCCCC1)c1cn(CC(=O)N2CCCCCC2)c2ccccc12	inactive: 5.3%	
CCOc1cc(CNC(=O)c2sc3ncnc(N(C)C4CCCCC4)c3c2C)ccc1OC		inconclusive: 11.2 µM [inhibitor, partial curve, poor fit]
O=C(Nc1ccc(Oc2ncccn2)cc1)c1ccco1	inactive: 7.63%	
c1ccc(CNc2ncnc3c2oc2ccccc23)nc1		inconclusive: 2.91 µM [activator, full curve, poor fit]
COc1cc(C)c(S(=O)(=O)n2c([N+](=O)[O-])cnc2C)cc1C		inconclusive: 3.55 µM [inhibitor, single point]
CC(=O)c1cc(NC(=O)c2ccc(Cl)cc2)c(=O)oc1/C=C/N(C)C		inconclusive: 1.16 µM [inhibitor, single point]
CCC1CN(C(=O)N2CCC(C(=O)NCCN(CC)CC)CC2)c2cc(C)ccc2O1 (centres undefined)		inconclusive: 11.2 µM [inhibitor, single point]
CCOC(=O)CNC(=O)c1cc(-c2ccccn2)nc2c(C)c(Cl)ccc12	inactive: -16.5%	
CCOC(=O)C1=C(C)NC(=O)NC1c1ccccc1OCc1c(F)cccc1Cl (centres undefined)		inconclusive: 10 µM [inhibitor, partial curve, poor fit]
Cc1nc(C)c(C(=O)N(c2ccc(F)cc2)C(C(=O)NCC2CCCO2)c2ccccc2)s1 (centres undefined)		inconclusive: 15.8 µM [inhibitor, partial curve, poor fit]
Cc1ccc2cc(NC(=O)c3ccc(C(C)(C)C)cc3)ccc2n1	inactive: 3.87% [at 46.1 µM]	
CCc1nc(C)c(C(=O)N2CCCC(C(=O)Nc3cccc(-c4cccc(C)c4)c3)C2)o1 (centres undefined)		inconclusive: 12.6 µM [inhibitor, partial curve, poor fit]
COc1cc(-c2nc(C(F)(F)F)c(OC)o2)cc(OC)c1OC		inconclusive: 0.562 µM [inhibitor, full curve, poor fit]
COc1ccc(C(=O)CSc2nnc(-c3ccco3)n2C)cc1		inconclusive: 2.91 µM [activator, partial curve, poor fit]
NC(N)=NC1=NC(=O)/C(=C/c2ccccc2-n2cccn2)S1	inactive: -17%	
O=C(CSc1nnnn1C1CC2CCC1C2)Nc1ccnc2ccccc12 (centres undefined)		inconclusive: 0.1 µM [inhibitor, full curve]
Cc1cccc(C)c1NC(=O)CNC(=O)C12CC3CC(CC(O)(C3)C1)C2	inactive: -0.344%	
COc1ccc(OC)c(CNC(=O)CCc2c(C)nc3c(c2C)c(=O)n(C)c(=O)n3C)c1	inactive: 10.2% [at 46.1 µM]	
CC(=NCCc1ccccc1)c1c(O)n(C)c(=O)n(C)c1=O	inactive: 7.98% [at 46.1 µM]	
C(=C\c1nc2ccccc2[nH]1)/c1ccccc1		inconclusive: 4.61 µM [inhibitor, full curve, poor fit]
CC(C)Oc1ccccc1-c1nc(SCC(=O)O)n[nH]1		inconclusive: 11.2 µM [activator, partial curve, poor fit]

Structure (SMILES)	activity change, negative = inhibition	Potency
Nc1ccccc1C(=O)NC(=O)Nc1ccc(Oc2ncc(Br)cn2)c(Cl)c1		inconclusive: 0.0891 µM [inhibitor, full curve, poor fit]
Cc1cc(N/N=C/c2ccc(O)cc2O)nc(-n2nc(C)cc2C)n1		active: 7.31 µM
CC(=C\c1ccccc1)/C=C1/SC(=S)N(CCCC(=O)O)C1=O		inconclusive: 6.31 µM [inhibitor, full curve]
COc1cccc(C(=O)N2CC(=O)Nc3ccc(C)cc3C2c2ccc(F)cc2)c1OC (centres undefined)		inconclusive: 35.5 µM [inhibitor, single point]
CCN1C(=O)C(CC(=O)Nc2ccc(OC)cc2)N(CCc2ccccc2)C1=S (centres undefined)		inconclusive: 22.4 µM [inhibitor, single point]
Cc1ccc[n+](C(C)C(=O)c2ccc(-c3ccccc3)cc2)c1 (centres undefined)		inconclusive: 25.1 µM [inhibitor, single point]
CCCN(CCC)CCCNC(=O)c1cc2c(=O)n(CC)c3ccccc3c2s1		inconclusive: 5.01 µM [inhibitor, full curve, poor fit]
COc1ccc(NC(=O)CC2C(=O)N(c3ccc(OC)cc3)C(=O)N2C2CCCCC2)cc1 (centres undefined)		inconclusive: 7.08 µM [inhibitor, partial curve, poor fit]
Cc1cccc(Nc2c3c(nc4ccccc24)CCC3)c1		inconclusive: 20 µM [inhibitor, single point]
O=C(CCc1nnc(C2CCCCC2)o1)N1CCN(C2CCCCC2)CC1	inactive: 13.8%	
CCCCNC(=O)Cn1cnc2c(cnn2-c2ccc(C)cc2)c1=O	inactive: -22.8% [at 46.1 µM]	
COc1cc(C(=O)NCC2CCCO2)ccc1OCc1ccc(Cl)cc1Cl (centres undefined)		inconclusive: 10 µM [inhibitor, partial curve, poor fit]
COc1ccc(NC(=O)C2CC(=O)N(Cc3ccc(C)cc3)C2)cc1S(=O)(=O)N1CCCCC1 (centres undefined)		inconclusive: 0.164 µM [inhibitor, partial curve, poor fit]
C/C(=N/NC(=O)c1ccc2c(c1)OCO2)c1ccc(NC(=O)C(F)(F)F)cc1		inconclusive: 29.1 µM [inhibitor, single point]
CC1CCN(CC(=O)Nc2nccs2)CC1		inconclusive: 1.12 µM [activator, full curve, poor fit]
N#C/C(C(N)=O)=C1/SC=C(c2ccccc2)N1c1ccccc1		inconclusive: 0.0891 µM [inhibitor, full curve, poor fit]
O=C(Cn1cccc1)N1CCN(C(c2ccccc2)c2ccccc2)CC1	inactive: -2.27%	
Cc1cccc(CCNC(=O)c2ccc3c(c2)nc2n3CCOC2)c1		inconclusive: 11.2 µM [activator, single point]
CCOC(=O)/C(C#N)=C/c1cc(C)n(-c2ccccc2)c1C		inconclusive: 6.31 µM [inhibitor, partial curve, poor fit]
O=C(c1ccc(S(=O)(=O)N2CCOCC2)cc1)N1CCN(c2ccc(F)cc2)CC1	inactive: -1.82%	
C=CCOc1ccc(/C=N/NC(=O)C(C)Sc2ccccn2)cc1OC (centres undefined)		inconclusive: 2.31 µM [inhibitor, full curve]
CCCOCc1cc(CN2CCN(c3cccc(Cl)c3)CC2)c(O)c2ncccc12		inconclusive: 7.08 µM [inhibitor, full curve, poor fit]
O=C(N/N=C/c1ccc(OC(=O)c2ccco2)cc1)c1ccncc1	inactive: -5.4% [at 46.1 µM]	

5 compounds picked at random from the list so far:
Structure (SMILES)	activity change, negative = inhibition	Potency
Cc1ccc[n+](C(C)C(=O)c2ccc(-c3ccccc3)cc2)c1 (centres undefined)		inconclusive: 25.1 µM [inhibitor, single point]
CCCN(CCC)CCCNC(=O)c1cc2c(=O)n(CC)c3ccccc3c2s1		inconclusive: 5.01 µM [inhibitor, full curve, poor fit]
O=C(Cn1cccc1)N1CCN(C(c2ccccc2)c2ccccc2)CC1	inactive: -2.27%	
O=C(N/N=C/c1ccc(OC(=O)c2ccco2)cc1)c1ccncc1	inactive: -5.4% [at 46.1 µM]	
O=C(c1ccc(S(=O)(=O)N2CCOCC2)cc1)N1CCN(c2ccc(F)cc2)CC1	inactive: -1.82%	
